Library screening results

Amino acid sequences for entries named in this document (tags omitted).
UniProt E9BF75, entry or part of it: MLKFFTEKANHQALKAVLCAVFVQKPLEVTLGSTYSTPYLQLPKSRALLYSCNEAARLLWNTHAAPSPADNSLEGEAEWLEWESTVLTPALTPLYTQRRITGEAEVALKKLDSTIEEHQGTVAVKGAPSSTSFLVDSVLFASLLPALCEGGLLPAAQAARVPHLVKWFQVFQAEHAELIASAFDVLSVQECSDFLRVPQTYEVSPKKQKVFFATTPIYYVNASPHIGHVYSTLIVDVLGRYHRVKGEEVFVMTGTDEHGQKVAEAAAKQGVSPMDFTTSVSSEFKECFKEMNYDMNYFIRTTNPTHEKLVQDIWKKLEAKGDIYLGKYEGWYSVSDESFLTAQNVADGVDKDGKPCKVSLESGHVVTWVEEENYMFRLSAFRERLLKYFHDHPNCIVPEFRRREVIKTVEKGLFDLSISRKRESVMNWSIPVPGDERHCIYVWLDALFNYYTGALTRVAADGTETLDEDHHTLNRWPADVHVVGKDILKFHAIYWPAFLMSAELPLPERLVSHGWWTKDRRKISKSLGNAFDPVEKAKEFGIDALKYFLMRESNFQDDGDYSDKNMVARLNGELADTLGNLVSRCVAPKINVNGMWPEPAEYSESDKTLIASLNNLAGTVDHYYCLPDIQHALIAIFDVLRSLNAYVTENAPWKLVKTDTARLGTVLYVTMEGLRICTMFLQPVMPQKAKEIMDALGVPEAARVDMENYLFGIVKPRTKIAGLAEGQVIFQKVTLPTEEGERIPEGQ

Source: ChEMBL document CHEMBL3988442, “University of Dundee, Small-Polar-MMV Screening Library” (2021).

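Methionyl-tRNA synthetase (putative), Leishmania donovani (UniProt E9BF75). Primary screen of methionyl-tRNA synthetase; the read-out is not stated. The test concentration is not given. Values are per cent inhibition. Of about 68,000 compounds tested this way, about 24 (0.035%) reached 50% or more in at least one test.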

All values are in %.
The record does not define 0% and 100%; most values in the screen are far below 50% and negative numbers occur (in some assays of this library far below -100).
Compounds were drawn at random from those tested, without regard to their results.

| Compound | inhibition |
|---|---|
| `CN1C[C@H]2CNC[C@@]2(C(=O)N2CCN(c3ncccc3C#N)CC2)C1` | -2.558 |
| `O=C(O)c1ccccc1-c1c(-c2ccccc2)ncn1CC1CCCO1` (stereo not drawn) | 1.389 |
| `O=C(CCC1CCN(Cc2ccncc2)CC1)Nc1ccccc1Cl` | 8.602 |
| `Cc1cc(C2CCCN(CCCS(C)(=O)=O)C2)n[nH]1` (stereo not drawn) | 15.56 |
| `Cn1cc(CN2CCC3(CC2)CC(=O)Nc2ccccc23)cn1` | 10.03 |
| `COc1c(C(=O)N2CCOC(c3cccs3)C2)c(C)nn1C` (stereo not drawn) | 13.64 |
| `COCC(NC(=O)c1cc(NC(C)=O)ccc1Cl)c1ccccn1` (stereo not drawn) | 15.5 |
| `O=C(Nc1cc(-c2ccccc2)on1)N1CCN(CCO)CC1` | 9.355 |
| `CC(C)Oc1ccc(CNC(=O)NCC(C)(C)C(N)=O)cc1F` | 13.02 |
| `CC(C)(O)CN1CCN(C(=O)c2cccn2Cc2cccnc2)CC1` | 12.63 |
| `CN(Cc1ccc(-n2ccnc2)cc1)CC1CCCN1c1cccnn1` (stereo not drawn) | 14.92 |
| `CCC(CNC(=O)Cn1ccnc1)Oc1cccc(F)c1` (stereo not drawn) | 5.396 |
| `Cc1cn[nH]c1C1CCCCN1C(=O)CCc1c(C)n[nH]c1C` (stereo not drawn) | 3.059 |
| `CN(C)Cc1cccc(-c2cccnc2C(=O)NCc2ccccn2)c1` | 7.188 |
| `CC(C)(C)OC(=O)NCC1CCN(C(=O)c2ccccc2O)CC1` | 6.747 |
| `O=S(=O)(c1cccs1)N1CC[C@H]2[C@H]1CCN2c1ncccn1` | 6.667 |
| `O=C(C1CCCOC1)N(CC(F)F)c1cccc(Cl)c1` (stereo not drawn) | 2.957 |
| `c1ccc(CN2CCc3c(COCc4ccncc4)cncc3C2)nc1` | -8.654 |
| `Cn1ncc2c(NC3CCSC3)nc(-c3ccncc3)nc21` (stereo not drawn) | 14.85 |
| `O=C(C1CC(F)(F)C1)N1CC[C@H]2OCC[C@@]2(COCC2CC2)C1` | 18.12 |
| `c1ccc(CN2CCC(CNc3ncnc4c3CCNCC4)CC2)cc1` | 17.13 |
| `Cc1cccc(CCC(=O)N2CCCC(c3cc(C(N)=O)[nH]n3)C2)c1` (stereo not drawn) | 3.268 |
| `O=C(c1ccc2c(c1)OCO2)N1CCCC(n2ccnc2)C1` (stereo not drawn) | 3.725 |
| `Cc1cc(=O)n2ncnc2n1CC(O)c1ccccc1F` (stereo not drawn) | 15.85 |
| `O=C1NCC2(CCCN(Cc3ccncc3)C2)Oc2ccccc21` (stereo not drawn) | 18.75 |
| `CCCOc1cc(F)ccc1NC(=O)NCc1noc(C)n1` | 12.24 |
| `CS(=O)(=O)Nc1ccc(-n2c(CCCO)nc3ccccc32)cn1` | 6.863 |
| `CS(=O)(=O)c1cncnc1C1CCCN(C(=O)NCc2ccccc2)C1` (stereo not drawn) | 2.174 |
| `CC(C)CCC(=O)N1CCN(C(C)c2nnc(CC(C)C)o2)CC1` (stereo not drawn) | 5.426 |
| `O=c1[nH]cc(Nc2ccccc2)c(=O)[nH]1` | -4.348 |
| `COc1ccc(NC(=O)Cc2c(C)nc3c(c2C)c(=O)[nH]n3C)cn1` | 16.43 |
| `CN1CCN(c2cccc(Cl)c2CNCCS(C)(=O)=O)CC1` | 8.043 |
| `Cc1csc(C2CCCCN2C(=O)COCc2nc(C)no2)n1` (stereo not drawn) | 18.09 |
| `O=C(NCCCO)Nc1cccc(Cl)c1F` | 15.04 |
| `Cc1cnn(C2CN(CCOc3ccc(C#N)cc3)C2)c1` | 8.683 |
| `Cc1noc(C)c1CN(C)Cn1c(=O)oc2ccccc21` | 7.606 |
| `CC(C)N1CCO[C@H]2CN(C(=O)c3ccncc3F)C[C@H]21` | 11.59 |
| `CCC(=O)NC(c1ccc(C)cc1)c1cccc(S(C)(=O)=O)c1` (stereo not drawn) | 18.32 |
| `CCN(CC)C(=O)CN1CCCC(c2nc(C)c3c(n2)N(C)CCC3)C1` (stereo not drawn) | 14.17 |
| `O=C(O)c1ccccc1-c1ccc(CN2CCC(CO)C2)cc1` (stereo not drawn) | 18.1 |
| `CC(C)CN1CC(O)CN(S(=O)(=O)c2ccccc2)CC1=O` (stereo not drawn) | 3.014 |
| `Cc1csc(CNc2cnn(CC(F)(F)F)c2)n1` | -10.56 |
| `Cc1noc(C)c1-c1cccc(C2CCN(S(=O)(=O)N(C)C)CC2)n1` | 9.302 |
| `CC(C)OCc1ccc(CNc2cncc(-n3cccn3)n2)cc1` | 21.59 |
| `COc1ncccc1NC(=O)C1CCN(S(C)(=O)=O)CC1` | 10.12 |
| `CN(C)c1cccc(C2CCCN2c2nc3c(cnn3C)c(=O)[nH]2)c1` (stereo not drawn) | 8.791 |
| `CN(C)C[C@H]1C[C@@H](CO)CN(C(=O)c2cc(=O)[nH]c3cc(F)ccc23)C1` | 12.63 |

Once more, the final 4:

| Compound | inhibition |
|---|---|
| `CC(C)OCc1ccc(CNc2cncc(-n3cccn3)n2)cc1` | 21.59 |
| `COc1ncccc1NC(=O)C1CCN(S(C)(=O)=O)CC1` | 10.12 |
| `CN(C)c1cccc(C2CCCN2c2nc3c(cnn3C)c(=O)[nH]2)c1` (stereo not drawn) | 8.791 |
| `CN(C)C[C@H]1C[C@@H](CO)CN(C(=O)c2cc(=O)[nH]c3cc(F)ccc23)C1` | 12.63 |